Measured values as given in the supplement of paper PMC5949888.
Most values lie at the floor of the assay. Slopes are relative: functional sequences can read slightly below zero.

These substances were tested on Saccharomyces cerevisiae PS128 hsf1 delta, HSF1(1-493) fusion (assay: growth estimate (transactivation domain function in HSF1 fusion, heat-shock survival) (a.u. (slope of normalised read count over time)); higher = stronger growth at 37°C, i.e. more transactivation activity). Settings: library: random library.
Experimental: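 Random 60-nt DNA library encoding peptides of up to 20 aa, fused to the C-terminus of yeast HSF1 residues 1-493 (C-terminal TAD deleted) and expressed from the native HSF1 promoter on a CEN plasmid in hsf1-deleted S. cerevisiae PS128. Cells were selected at 37°C on -trp 5-FOA plates for 0, 2, 4, 6 and 8 days and amplicons were sequenced. Growth estimate is the slope of a robust linear fit of total-sum-normalised read counts (normalised to the first time point) over time, using at least 2 replicates. Sequences are classed functional (TAD activity) above a threshold of -0.13, set from stop-codon control sequences.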

Substance | growth estimate
GDLPSRYNVRVSSPIVLFSK | < -0.25
GDLRFANGATCNVG | < -0.25
GDLWMGVVRQGIHQIRR | < -0.25
GDPGAYWLWSINWNSKEPLS | -0.0959
GDQREPFPWICLSTVRLFAL | < -0.25
GDRGRCRIGASMLVTEEIPS | < -0.25
GDRTDRSSRLSASFNPA | < -0.25
GDRVAKYILRQAFR | < -0.25
GDRWVGGRSDLRLYQLILCE | < -0.25
GDSNKK | < -0.25
GDSPHSLNF | < -0.25
GDTSVRGIMTVNARRNLPPK | < -0.25
GDVHQDLMSFYTANKAALAH | < -0.25
GDVMGRRSERVLSAKIPQFS | < -0.25
GDVRYLIFY | < -0.25
GDVVFWVFNLELVRAVRSPS | < -0.25
GDVVRRSAIEG | < -0.25
GDYVPESKAT | -0.223
GEACSIP | < -0.25
GEAFQ | < -0.25
GEAITQLQVCTQGTVFVGQC | < -0.25
GEAMLYPGARSPSFAGLPPD | < -0.25
GEARGAVIYAPSVWWLTHQH | < -0.25
GEASLD | < -0.25
GECSLPNGNNGDGNSTRPRD | < -0.25
GEDKVAPAISFGLY | < -0.25
GEEGICKAVQIGCPVPKS | 0.342

Substance | growth estimate
GEFGGRRMLPRMSERQATHR | < -0.25
GEFSTGPMYGVRKEGGSVGS | < -0.25
GEGDESR | < -0.25
GEGK | < -0.25
GEGRAVRFIGRAGLRGDQLR | < -0.25
GEGRSYVLKECGL | < -0.25
GEGRYFGNVGAHAQVGAIVL | < -0.25
GEGSTSVRALLGPNFGNGAG | < -0.25
GEGVDIQLVRYPDNDKSA | < -0.25
GEHNKCGWRELAGRQLSFAE | < -0.25
GEICADLMLTARVGSGPRVR | < -0.25
GEIGP | < -0.25
GEKFHQVTRVPSRAWPFGLN | -0.0747
GEKFTELYLSGIII | < -0.25
GELGTDGEQTLNRPWGDFTE | < -0.25
GELLIYAMTRCPGSIAS | < -0.25
GELRAVVLYDHQMGSRARSA | < -0.25
GEMGLLAPELQGGRREMSSC | < -0.25
GEPLYSMKARVGTDRHSL | < -0.25
GEPSHPLLLARRQAGRTGSC | < -0.25
GER | < -0.25
GEREIQVEHRFYSFLKGKT | < -0.25
GERHVVPEYWLQASVIHAGR | < -0.25
GERYEPT | < -0.25
GESATNISQWEPKHATRDRD | < -0.25
GETRIGGTSRTSVTLSSDRY | < -0.25
GETSRSCINVEVIKPSAECR | < -0.25

Substance | growth estimate
GEVSQGVLAFWLFKACIRRG | < -0.25
GEWALLESL | -0.226
GEYQRGLLYSPADPTRNHSG | < -0.25
GFADLQYPAYCA | < -0.25
GFANITTGMRQAVPYIEGGP | < -0.25
GFCEPKRS | < -0.25
GFCFP | < -0.25
GFDTKSGTS | < -0.25
GFEHLVFEGVSHIFSFTPRI | < -0.25
GFERCARNCQSEVSHFTPST | < -0.25
GFFFRSASDASPDPSARVFT | 0.0944
GFFTWRIQRR | < -0.25
GFFYLFKGKPEVQYPAWCLG | < -0.25
GFGPLFITGA | < -0.25
GFHI | < -0.25
GFLCGEILNRMELG | < -0.25
GFLNAASPYTTRSV | < -0.25
GFLNFRIGSR | < -0.25
GFLTRAIT | < -0.25
GFMFTRNAHAPPVIDESIIP | < -0.25
GFMQVPEAGGTQT | < -0.25
GFPCDTHTYLLVSVTRGVAL | < -0.25
GFQ | < -0.25
GFQLRIYSAQCAPV | < -0.25
GFQSRALDLRP | < -0.25

Retrieved one by one from the list above, 5 records:
Substance | growth estimate
GEGRAVRFIGRAGLRGDQLR | < -0.25
GDVHQDLMSFYTANKAALAH | < -0.25
GFQSRALDLRP | < -0.25
GDSNKK | < -0.25
GFANITTGMRQAVPYIEGGP | < -0.25
